# Hit rate of the full screen: of about 140,000 compounds, about 4,300 (3.1%) were called active. This list was built around the results that the source calls inconclusive (neither active nor inactive); the mix of calls is not that of the screen.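 How the source made its calls: active means readout at or below -70, meaning at least 70% loss of cells showing the perinucleolar compartment, a nuclear body marking cancer cells; inconclusive means readout between -30 and a set limit; inactive means the rest.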
# Test: High Content Assay for Compounds that inhibit the Assembly of the Perinucleolar Compartment;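 further: plate controls were DMSO wells for no effect and camptothecin positive control wells for full effect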
# Settings: PC3M PTB-GFP, PNC prevalence imaging, 16 h; at 10 µM; stronger effect = lower value
# Procedure, shortened: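 Read-out is percentage of cells bearing a perinucleolar compartment, from automated 20x imaging of fixed, Hoechst-stained PC3M PTB-GFP cells. Cells were seeded 4 h, then exposed 16 h to compound (23 nl of library stock) in duplicate plates.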
row,SMILES,"activity change (PNC), negative = inhibition"
1,CC(C)Cn1c(C(C)NC(=O)Cc2ccccc2)nc2ccccc21 (stereo not given),inconclusive: -32.4%
2,O=C(O)c1cccc(Oc2ccccc2[N+](=O)[O-])c1,active: -116%
3,Cc1cnc(C(=O)Nc2cccc(-c3nnc4n3CCCCC4)c2)cn1,inactive: 31.1%
4,CCOC(=O)C1=C(C)NC(=O)NC1c1ccccc1Cl (stereo not given),inconclusive: -47.7%
5,C=CCc1cccc(/C=N/n2cnnc2)c1O,inconclusive: -46.3%
6,O=C(Oc1ccc(Cl)cc1)c1ccc(N2CCOCC2)c([N+](=O)[O-])c1,inconclusive: -38.5%
7,CCCCC(c1nnnn1CCOC)N1CCN(CC)CC1 (stereo not given),active: -100%
8,Cc1cc(-c2n[nH]c(=S)n2/N=C/c2cccs2)n[nH]1,inactive: 17%
9,O=C(Nc1c(C(=O)Nc2cccc3ccccc23)cnn1-c1ccccc1)c1ccco1,inconclusive: -53%
10,COc1ccc(CCC2(C)NC(=O)NC2=O)cc1 (stereo not given),inconclusive: -40.5%
11,COc1ccc(CCNC(=O)COc2ccc(S(=O)(=O)N3CCOCC3)cc2)cc1,inconclusive: -63.6%
12,Cn1c(=O)c2c(nc(Sc3ncccn3)n2Cc2ccccc2Cl)n(C)c1=O,inconclusive: -30.4%
13,Cc1ccnc(NC(=O)Nc2ccc3c(c2)N(C)C(=O)CS3)c1,inconclusive: -50%
14,Cc1ccc(C(=O)NCCSC(C)(C)C)cc1,inactive: 15.5%
15,Cn1c(=O)c2c(nc(Oc3ccccn3)n2C)n(C)c1=O,inconclusive: -40.1%
16,CC(C)[C@H](NC(=O)OC(C)(C)C)c1nnc(SCc2cccc(F)c2)o1,inconclusive: -40.4%
17,Cc1cc(C)c2nc(SCC(=O)N3CC(=O)Nc4ccccc43)c(C#N)cc2c1,active: -104%
18,O=c1cc(CSc2nnc(-c3cccs3)n2Cc2ccccc2)nc2sc3ccccc3n12,inactive: 8.86%
19,CCc1ccc(Nc2ccc(C(N)=O)cc2[N+](=O)[O-])cc1,inconclusive: -38.9%
20,CC1Cn2c(nnc2-c2cccc(Cl)c2)S1 (stereo not given),inactive: -17.5%
21,O=C(COc1ccc2ccccc2c1)Nc1nc2ccccc2[nH]1,inconclusive: -39.1%
22,COc1ccc(-n2c(SCC(=O)Nc3nccs3)nc3c(c2=O)SCC3)cc1,inconclusive: -33.6%
23,Cc1ccc2cc(CN(Cc3ccc4c(c3)OCO4)Cc3nnnn3Cc3ccco3)c(=O)[nH]c2c1,inconclusive: -49.7%
24,O=c1[nH]c(SCc2nc3ccccc3c(=O)n2-c2ccccc2)nc2ccccc12,inactive: 9.73%

row,SMILES,"activity change (PNC), negative = inhibition"
1,C=CCc1c(C)[nH]c(=S)c(C#N)c1C,inactive: 28%
2,c1ccc(-c2nnc3sc(Cc4cccs4)nn23)cc1,inactive: 221%
3,COCc1cc(=O)n2[nH]c(-c3ccccc3)cc2n1,inconclusive: -50.4%
4,Clc1cc(Cl)c2nc(N3CCCCC3)sc2c1,inactive: 3.37%
5,CC(C)N1CC=C2C(C#N)=C(N)C(C#N)(C#N)[C@H](c3ccoc3)[C@H]2C1,inactive: 115%
6,N#Cc1c(N)sc(=S)c2c1CCCC2,inactive: 26.2%
7,COCCCNC(=O)c1cn(Cc2c(F)cccc2Cl)nn1,inconclusive: -37.9%
8,C/C(=N\n1c(C)cc(C)c(C#N)c1=O)c1cccs1,inactive: 20.8%
9,CC(C)(C)c1ccc(C(=O)CCCSC2=C(C#N)C(c3ccco3)C3=C(CCCC3=O)N2)cc1 (stereo not given),inconclusive: -70.1%
10,Clc1ccc(OCc2nnc(-c3ccccc3Br)o2)cc1,inactive: 1.07%
11,CCc1ccc(Nc2nnc(SCc3cc(=O)n4ccsc4n3)s2)cc1,inactive: -25.1%
12,O=c1c2ccccc2c(C=NCCO)c(O)n1-c1ccccc1,inactive: 14.8%
13,CCOC(=O)c1cnc2ccc(C(=O)OC)cc2c1NCCN1CCOCC1,inconclusive: -42.8%
14,O=C(COc1cccc(Cl)c1Cl)Nc1ccc2c(c1)CCC2,inconclusive: -53.4%
15,Cc1cn2c(nc(=O)c3cccnc32)s1,inactive: 7.03%
16,Cc1noc(C(=O)NCc2ccccc2)c1Cl,inconclusive: -45.6%
17,COC(=O)CSc1nc(-c2ccccc2)c2c(c1C#N)CCCC2,inconclusive: -37.4%
18,CN(Cc1ccccc1)S(=O)(=O)c1cccc2cccnc12,inconclusive: -32.6%
19,O=C(NCC1CCC(C(=O)O)CC1)OCc1ccccc1 (stereo not given),inconclusive: -31.3%
20,Cc1ccc(/C=N/n2cnnc2)s1,inconclusive: -40.4%
21,COc1ccc(C2CC(c3ccc(Cl)cc3)n3nc(N)nc3N2)cc1 (stereo not given),inconclusive: -42.6%
22,CC1CCN(C(=O)CSc2nc3[nH]ncc3c(=O)[nH]2)CC1,inconclusive: -31%
23,Cc1cccc(C)c1NC(=O)C(c1cccs1)N(Cc1ccco1)C(=O)Cn1nnc2ccccc21 (stereo not given),inconclusive: -40.7%
24,COC(=O)c1ccc(C2C(C#N)=C(C)NC3=C2C(=O)CC(C)(C)C3)cc1 (stereo not given),inconclusive: -36.7%

row,SMILES,"activity change (PNC), negative = inhibition"
1,O=C(NCC1CCCO1)c1cccc(Br)c1 (stereo not given),inactive: -15.5%
2,Nc1c(N2CCCCC2)c(=O)[nH]c(=O)n1-c1ccccc1,active: -84.1%
3,CCC(=O)N1Cc2ccccc2-c2ccccc2C1=O,inactive: 44.2%
4,COCc1[nH]nc2c1C1(C(=O)N(C)c3ccccc31)C(C#N)=C(N)O2 (stereo not given),inactive: -8.95%
5,NC(=O)c1c(N)sc2c1CCCC2,inactive: 15.5%
6,Cc1c(C(=O)N2CCN(S(C)(=O)=O)CC2)oc2ccccc12,inactive: -19.1%
7,O=C(c1ccccc1Sc1c(Cl)cccc1[N+](=O)[O-])N1CCOCC1,inactive: -25.4%
8,COc1ccc([N+](=O)[O-])cc1NC(=O)CSc1ccccc1,inconclusive: -43.9%
9,O=C(CSc1ccccc1C(=O)NCCCN1CCCC1=O)NCc1ccco1,inconclusive: -67.7%
10,C#CCOC(=O)CCCNc1ccc([N+](=O)[O-])cc1[N+](=O)[O-],inactive: -17.4%
11,O=C(O)Cn1cc2c(n1)CCCC2,inconclusive: -51.2%
12,Clc1ccc(Oc2nnnn2-c2ccccc2)cc1,inconclusive: -38.6%
13,Cc1ccc(C)c(NC(=S)NNC(=O)c2csc3c2CCCC3)c1,inactive: -26.8%
14,COCCOc1nc2ccccc2nc1C,inconclusive: -64.6%
15,O=C(COc1ccc(S(=O)(=O)N2CCCC2)cc1Cl)NCc1ccc2c(c1)OCO2,active: -107%
16,CN(C)S(=O)(=O)c1ccc(NC(=O)N2CCN(c3ccccc3)CC2)cc1,inconclusive: -37.9%
17,O=C1c2oc3ccccc3c(=O)c2C(c2cccnc2)N1Cc1ccco1 (stereo not given),inactive: -6.23%
18,CCC(=O)NC(=S)Nc1ccc(NC(=O)c2ccco2)c(OC)c1,inconclusive: -31.7%
19,COc1ccc(CNC(=O)c2cnc(C)cn2)c(OC)c1,inactive: 5.35%
20,COc1ccc(CCNC(=O)CSc2nc(-c3ccc(OC)c(OC)c3)ccc2C#N)cc1,inconclusive: -41.6%
21,O=C(NCCSc1c[nH]c2ccccc12)c1ccc(Br)o1,active: -119%
22,C=CCN(C(=O)CSc1nc2[nH]ncc2c(=O)n1-c1ccccc1OC)c1ccccc1,inconclusive: -38.9%
23,C=CCc1cc(C=O)cc(OC)c1OCc1c(Cl)cccc1Cl,inactive: 28.1%
24,CN(C)c1ccc(C(=O)OCC(=O)c2cccs2)cc1,active: -113%

# An excerpt taken from the entries so far, as a working copy:
row,SMILES,"activity change (PNC), negative = inhibition"
17,Cc1cc(C)c2nc(SCC(=O)N3CC(=O)Nc4ccccc43)c(C#N)cc2c1,active: -104%
18,O=c1cc(CSc2nnc(-c3cccs3)n2Cc2ccccc2)nc2sc3ccccc3n12,inactive: 8.86%
19,CCc1ccc(Nc2ccc(C(N)=O)cc2[N+](=O)[O-])cc1,inconclusive: -38.9%
20,CC1Cn2c(nnc2-c2cccc(Cl)c2)S1 (stereo not given),inactive: -17.5%

# Four entries from above, arranged by count of non-hydrogen atoms, rising.
row,SMILES,"activity change (PNC), negative = inhibition"
14,COCCOc1nc2ccccc2nc1C,inconclusive: -64.6%
8,COc1ccc([N+](=O)[O-])cc1NC(=O)CSc1ccccc1,inconclusive: -43.9%
7,O=C(c1ccccc1Sc1c(Cl)cccc1[N+](=O)[O-])N1CCOCC1,inactive: -25.4%
20,COc1ccc(CCNC(=O)CSc2nc(-c3ccc(OC)c(OC)c3)ccc2C#N)cc1,inconclusive: -41.6%

# (listing goes on)

row,SMILES,"activity change (PNC), negative = inhibition"
1,CCOC(=O)c1c(C)[nH]c2c1cc(O)c1ccccc12,inconclusive: -40.3%
2,O=C(Nc1ccccc1)c1cccc(N2CCCC2=O)c1,inconclusive: -60.5%
3,Cc1cc(C)nc(N(C#N)Cc2ccccc2Cl)n1,inactive: 57.5%
4,Cc1cccc(N(CC(N)=O)C2SC(=O)NC2=O)c1 (stereo not given),active: -100%
5,CC(C)c1nnc(NC(=O)Cc2cccs2)s1,inconclusive: -46.1%
6,Cc1ccnc(NS(=O)(=O)c2ccc(NC(=O)C3CCCCC3C(=O)O)cc2)n1 (stereo not given),inconclusive: -46%
7,Cn1cc(S(=O)(=O)N2CCN(Cc3ccccc3)CC2)c(=O)n(C)c1=O,inconclusive: -67.7%
8,O=C(Nc1ccnc(-c2cccnc2)n1)c1ccccc1Cl,inconclusive: -42.5%
9,O=C(COc1ccc(S(=O)(=O)N2CCc3ccccc32)cc1Cl)NCc1ccccn1,inconclusive: -68%
10,Clc1ccc(CSc2ncccn2)cc1,inconclusive: -42.8%
11,COc1ccc(CN(CC(=O)NCC2CCCO2)C(=O)CCC(=O)Nc2cc(C)on2)cc1 (stereo not given),inconclusive: -61.9%
12,CCOC(=O)N1CCN(C(=O)C2CCN(S(=O)(=O)CC)CC2)CC1,inconclusive: -44.9%
13,O=C(CN(c1ccc(F)cc1)S(=O)(=O)c1ccc2c(c1)OCCO2)NCc1ccncc1,inconclusive: -38.1%
14,Cc1cc(C)cc(N(C(=O)Cn2nnc3ccccc32)C(C(=O)NCc2ccco2)c2ccncc2)c1 (stereo not given),inconclusive: -31.5%
15,CCc1nn(C(C)C(=O)N2CCc3ccccc3C2)c(=O)c2cc3occc3n12 (stereo not given),inconclusive: -39.7%
16,Fc1ccc2[nH]c3c(N4CCSCC4)ncnc3c2c1,inconclusive: -74.1%
17,CCn1c(SCC(N)=O)nnc1-c1ccc(S(=O)(=O)N2CCN(C)CC2)cc1,inconclusive: -46.3%
18,Cc1cc(Cl)ccc1OC(C)C(=O)Nc1ccccc1N1CCOCC1 (stereo not given),active: -104%
19,Oc1ccc2[nH]ccc2c1,inconclusive: -48.9%
20,Cn1nccc1/C=C(/C#N)S(=O)(=O)c1ccccc1,inconclusive: -32.2%
21,O=C1N/C(=N\N=C\c2cccnc2)SC1Cc1ccc(SC(F)F)cc1 (stereo not given),inactive: -23.5%
22,O=C(c1cccc([N+](=O)[O-])c1)c1cc2ccccc2o1,inconclusive: -42.2%
23,CCC(=O)Nc1cc(C)c(NC(=O)C23CC4CC(CC(C4)C2)C3)cn1,inconclusive: -66.6%
